In data set [1] the test system is τA (τ131-τ95-τ55), wt (Saccharomyces cerevisiae). The experiment in a line: EMSA. The settings on record: just begins to shift at 10 uM protein, 1 uM DNA, affinity roughly micromolar; τA EMSA: 100 mM NaCl, 20 mM HEPES pH 7.5, 5 mM DTT, 1 h on ice, 10% glycerol added before loading; recombinant protein; protein details: N-terminal TEV-cleavable His tag on τ95; label: 6FAM at 3' end of non-template strand. Background: A gel shift assay detects complexes by their altered migration in electrophoresis.

Chains of the proteins cited; added tags and fusions are not shown. Chains listed by the source or under a name are the forms on record and can include a tag or linker.
τA (τ131-τ95-τ55), wt (Saccharomyces cerevisiae), one chain, as listed by the source, chain 1 of 3: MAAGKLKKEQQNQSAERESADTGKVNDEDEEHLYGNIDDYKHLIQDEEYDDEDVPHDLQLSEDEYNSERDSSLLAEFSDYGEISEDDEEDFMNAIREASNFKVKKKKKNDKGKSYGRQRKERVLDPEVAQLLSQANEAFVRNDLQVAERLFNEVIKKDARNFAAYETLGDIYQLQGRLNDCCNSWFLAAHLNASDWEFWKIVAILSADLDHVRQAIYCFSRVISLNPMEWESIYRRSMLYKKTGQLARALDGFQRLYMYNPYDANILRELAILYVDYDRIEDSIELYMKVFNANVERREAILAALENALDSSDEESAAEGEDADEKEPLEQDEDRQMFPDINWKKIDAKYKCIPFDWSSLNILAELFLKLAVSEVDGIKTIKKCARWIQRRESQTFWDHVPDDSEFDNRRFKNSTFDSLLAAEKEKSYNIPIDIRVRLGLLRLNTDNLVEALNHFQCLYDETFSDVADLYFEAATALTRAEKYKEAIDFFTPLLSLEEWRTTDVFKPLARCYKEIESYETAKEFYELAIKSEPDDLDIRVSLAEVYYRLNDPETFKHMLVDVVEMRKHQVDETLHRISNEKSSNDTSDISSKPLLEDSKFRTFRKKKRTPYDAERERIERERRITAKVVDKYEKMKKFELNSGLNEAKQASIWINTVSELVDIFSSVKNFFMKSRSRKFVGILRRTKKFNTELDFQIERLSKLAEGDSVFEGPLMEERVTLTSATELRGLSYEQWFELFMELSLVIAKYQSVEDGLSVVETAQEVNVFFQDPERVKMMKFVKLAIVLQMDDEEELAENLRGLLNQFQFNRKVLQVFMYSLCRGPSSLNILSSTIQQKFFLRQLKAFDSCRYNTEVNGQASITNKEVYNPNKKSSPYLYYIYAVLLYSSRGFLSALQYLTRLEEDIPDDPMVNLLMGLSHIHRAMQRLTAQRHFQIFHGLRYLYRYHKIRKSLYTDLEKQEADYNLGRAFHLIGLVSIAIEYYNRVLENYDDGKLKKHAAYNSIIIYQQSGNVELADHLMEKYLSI
τA (τ131-τ95-τ55), wt (Saccharomyces cerevisiae), one chain, as listed by the source, chain 3 of 3: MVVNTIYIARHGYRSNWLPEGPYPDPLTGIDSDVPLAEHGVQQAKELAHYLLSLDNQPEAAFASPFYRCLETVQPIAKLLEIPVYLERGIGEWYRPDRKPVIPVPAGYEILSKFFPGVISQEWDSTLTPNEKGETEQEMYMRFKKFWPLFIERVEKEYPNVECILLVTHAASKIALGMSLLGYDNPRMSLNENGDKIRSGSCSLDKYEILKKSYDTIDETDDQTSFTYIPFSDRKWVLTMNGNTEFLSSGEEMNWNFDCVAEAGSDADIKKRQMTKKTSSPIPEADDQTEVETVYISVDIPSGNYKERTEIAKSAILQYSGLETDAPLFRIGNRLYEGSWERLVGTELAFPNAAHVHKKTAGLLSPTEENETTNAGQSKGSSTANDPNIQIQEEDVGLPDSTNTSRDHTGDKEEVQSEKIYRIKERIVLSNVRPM
τA (τ131-τ95-τ55), wt (Saccharomyces cerevisiae), one chain, as listed by the source, chain 2 of 3: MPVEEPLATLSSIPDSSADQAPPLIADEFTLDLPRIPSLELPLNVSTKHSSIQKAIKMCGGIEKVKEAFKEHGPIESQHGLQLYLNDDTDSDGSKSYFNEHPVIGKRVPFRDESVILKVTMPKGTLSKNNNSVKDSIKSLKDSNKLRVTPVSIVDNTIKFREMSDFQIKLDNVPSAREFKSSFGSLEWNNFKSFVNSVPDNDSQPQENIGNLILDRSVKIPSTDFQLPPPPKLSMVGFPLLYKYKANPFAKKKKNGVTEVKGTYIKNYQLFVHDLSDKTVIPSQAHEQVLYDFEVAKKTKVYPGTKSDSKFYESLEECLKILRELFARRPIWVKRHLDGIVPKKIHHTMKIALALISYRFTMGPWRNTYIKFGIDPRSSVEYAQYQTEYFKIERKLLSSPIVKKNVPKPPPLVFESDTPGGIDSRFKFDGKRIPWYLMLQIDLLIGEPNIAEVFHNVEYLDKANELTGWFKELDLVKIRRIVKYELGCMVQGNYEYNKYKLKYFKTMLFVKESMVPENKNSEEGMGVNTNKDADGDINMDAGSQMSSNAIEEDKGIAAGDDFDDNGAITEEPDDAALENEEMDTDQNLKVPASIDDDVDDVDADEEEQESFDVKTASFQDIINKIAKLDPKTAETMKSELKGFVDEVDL

Data set [2] has as its system τA Δtail (τ95Δtail) (Saccharomyces cerevisiae). The experiment in a line: filter binding. The settings on record: similar results to EMSA, no saturation, probe not restated; recombinant protein; protein details: N-terminal TEV-cleavable His tag on τ95; label: 6FAM at 3' end of non-template strand.
The test system of data set [3] is τA Δplug (τ95Δplug) (Saccharomyces cerevisiae). The experiment in a line: filter binding. To be noted: similar results to EMSA, no saturation, probe not restated; recombinant protein; protein details: N-terminal TEV-cleavable His tag on τ95; label: 6FAM at 3' end of non-template strand.
Data set [4] deals with τA (τ131-τ95-τ55), wt (Saccharomyces cerevisiae). The experiment in a line: filter binding. The settings on record: similar results to EMSA, no saturation, probe not restated; recombinant protein; protein details: N-terminal TEV-cleavable His tag on τ95; label: 6FAM at 3' end of non-template strand.
In data set [5] the test system is holo-TFIIIC, wt (Saccharomyces cerevisiae). The experiment in a line: EMSA. To be noted: 0.03-2.18 uM TFIIIC, 0.5 uM DNA; τA EMSA: 100 mM NaCl, 20 mM HEPES pH 7.5, 5 mM DTT, 1 h on ice, 10% glycerol added before loading; recombinant protein; label: 6FAM at 3' end of non-template strand.

For some assays here: The comparison behind a weaker result is the experiment's own reference, which may not be listed here. For some assays here: Construct, isoform or probe ends are uncertain for at least one entry. For some assays here: At least one verdict rests on a figure or table, not on a statement of the authors.

On to “CATCTTAGTATAGTGGTTAGT (double strand) [His_Abox]”, for which the binding result in data set [1] is reported as “binds more weakly”; in data set [2], “binds”; in data set [3] it was “binds”; in data set [4] it was “binds more weakly”.

Turning to “CATCTTAGTATAGTGGTTAGTACACATCGTTGTGGCCGATGAAACCCTGGTTCGATTCTAGG (double strand) [His_Abox_Bbox]”, the binding result in data set [5] is listed as “binds”.
